Measured values as given in patent US5686574.

Legend:
TR beta = target: T1, TR beta (UniProt P10828); experiment: activity in cells; conditions: T3-dependent transactivation; JEG3 cells; protein in cells; only the site is given
T1 sequence (looked up, limits assumed): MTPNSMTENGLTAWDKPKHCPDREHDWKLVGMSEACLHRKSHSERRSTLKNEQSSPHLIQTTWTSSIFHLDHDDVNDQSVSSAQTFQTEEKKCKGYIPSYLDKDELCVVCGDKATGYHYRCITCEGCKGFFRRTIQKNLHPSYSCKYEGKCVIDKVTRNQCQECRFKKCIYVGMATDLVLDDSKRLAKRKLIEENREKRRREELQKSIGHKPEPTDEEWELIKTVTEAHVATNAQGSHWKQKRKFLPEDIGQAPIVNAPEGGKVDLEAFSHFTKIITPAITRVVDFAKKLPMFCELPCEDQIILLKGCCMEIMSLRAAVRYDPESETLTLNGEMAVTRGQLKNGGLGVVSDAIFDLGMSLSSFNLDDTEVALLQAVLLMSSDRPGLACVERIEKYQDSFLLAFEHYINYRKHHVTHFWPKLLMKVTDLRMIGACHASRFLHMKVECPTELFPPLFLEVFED

[1] = test system: TR/GR chimera (TR A/B and C domains fused to GR D, E, F domains); experiment: activity in cells; conditions: ligand-dependent, relatively low activation; JEG3 cells; protein in cells; only the site is given
[2] = target: T2, CAR (intact, transfected) (Homo sapiens) (UniProt Q14994); experiment: activity in cells; conditions: protein in cells, only the site is given
T2 sequence (limits assumed): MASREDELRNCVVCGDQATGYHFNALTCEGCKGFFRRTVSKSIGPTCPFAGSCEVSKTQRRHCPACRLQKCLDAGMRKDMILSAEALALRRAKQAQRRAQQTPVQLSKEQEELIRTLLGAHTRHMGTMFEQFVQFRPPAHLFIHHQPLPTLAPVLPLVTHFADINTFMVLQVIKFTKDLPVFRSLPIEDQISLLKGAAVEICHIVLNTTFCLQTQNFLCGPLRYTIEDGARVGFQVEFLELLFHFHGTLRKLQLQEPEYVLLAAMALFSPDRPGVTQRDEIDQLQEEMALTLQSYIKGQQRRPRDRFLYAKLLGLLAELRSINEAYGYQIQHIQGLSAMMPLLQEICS

[3] = target: T3, CAR (constitutive activator of retinoid response, NR1I3) (Homo sapiens) (UniProt Q14994); experiment: EMSA; conditions: specific binding, lower apparent affinity than RAR alpha; no effect of mixing with RAR; protein in an extract
T3 sequence (limits assumed): T2 sequence (limits assumed)

RAR alpha = target: T4, RAR alpha (UniProt P10276); experiment: EMSA; conditions: higher apparent affinity than CAR; protein in an extract
T4 sequence (looked up, limits assumed): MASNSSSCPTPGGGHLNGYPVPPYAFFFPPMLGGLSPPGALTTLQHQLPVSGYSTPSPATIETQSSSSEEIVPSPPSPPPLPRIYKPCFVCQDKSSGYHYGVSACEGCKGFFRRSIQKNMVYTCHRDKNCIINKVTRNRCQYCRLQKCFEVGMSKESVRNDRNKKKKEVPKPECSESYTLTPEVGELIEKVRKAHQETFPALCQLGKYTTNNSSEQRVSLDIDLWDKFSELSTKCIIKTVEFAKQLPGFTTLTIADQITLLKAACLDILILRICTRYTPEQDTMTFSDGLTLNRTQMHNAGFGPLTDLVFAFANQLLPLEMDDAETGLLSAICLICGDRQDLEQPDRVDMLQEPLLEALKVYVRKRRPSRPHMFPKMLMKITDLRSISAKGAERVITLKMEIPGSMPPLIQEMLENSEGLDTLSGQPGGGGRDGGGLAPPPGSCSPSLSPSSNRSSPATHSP

CAR + RXR alpha = experiment: EMSA; conditions: CAR binding strongly stimulated by RXR alpha extract; protein in an extract
RAR beta = test system: T5, RAR beta; experiment: activity in cells; conditions: RA-induced activation; without RA excess RAR beta blocks CAR activation; protein in cells; only the site is given
T5 sequence (looked up, limits assumed): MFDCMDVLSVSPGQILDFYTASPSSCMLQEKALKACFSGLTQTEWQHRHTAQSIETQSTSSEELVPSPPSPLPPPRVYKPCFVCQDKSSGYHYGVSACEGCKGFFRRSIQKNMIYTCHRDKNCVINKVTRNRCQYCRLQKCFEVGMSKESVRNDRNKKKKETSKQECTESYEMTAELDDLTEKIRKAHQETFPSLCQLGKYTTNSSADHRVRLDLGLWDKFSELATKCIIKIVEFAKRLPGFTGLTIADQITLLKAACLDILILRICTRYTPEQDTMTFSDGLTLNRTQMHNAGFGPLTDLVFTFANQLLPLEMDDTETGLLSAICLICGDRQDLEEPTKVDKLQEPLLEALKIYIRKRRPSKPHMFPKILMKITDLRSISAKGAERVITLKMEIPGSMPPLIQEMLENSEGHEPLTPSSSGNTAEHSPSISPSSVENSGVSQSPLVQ

Sequence: AAAGGTAAGATCAGGGACGTGACCGCAG (double strand) [T3RE]
- activity on this sequence (TR beta): active
- activity on this sequence [1]: active

Sequence: AAAGGTAAGATCAGGGACGTGACCTCAG (double strand) [rat growth hormone T3RE/RARE up mutant]
- activity on this sequence ([2]; not transactivated, tandem copies, second inverted): not active

Sequence: AGACAGGTTGACCCTTTTTCTAAGGGCTTAACCTAGCTCACCTG (double strand) [laminin T3RE/RARE]
- activity on this sequence ([2]; not transactivated): not active

Sequence: AGGACGTTGGGGTTAGGGGAGGACAGTG (double strand) [rat malic enzyme T3RE]
- activity on this sequence ([2]; no response): not active

Sequence: CTGGAGGTGACAGGAGGACAGCAGCCCTGA (double strand) [rat alpha-myosin heavy chain T3RE]
- activity on this sequence ([2]; no response): not active

Sequence: GGGTAGGGTTCACCGAAAGTTCACTCG (double strand) [beta-RARE (RAR beta gene)]
- binding result [3]: binds
- binding result (RAR alpha): binds
- binding result (CAR + RXR alpha): binds
- activity on this sequence ([2]; constitutive transactivation without RA, JEG3 cotransfection (standard), stimulated by RXR alpha): active
- activity on this sequence (RAR beta): active

Sequence: TGGGTGAATGAGGACATTACTGACCGCTCCG (double strand) [rat osteocalcin VDRE/RARE]
- activity on this sequence ([2]; no response in cotransfection): not active

For part of these data: Results from cells or extracts need not show a direct contact. For part of these data: Protein sequences can lack the tags named with them. For part of these data: The exact form of at least one protein or probe is not confirmed. For part of these data: No signal at the amounts used counts as a negative.
